Measured values published in PMC5993797.
Where two headings read alike, the source gives them in different places. These are yes or no findings as the source states them, for the method shown. Binding seen in cells or lysates may run through a third protein. These calls come from enrichment with a bait or labelling near it, and not all partners need be listed. Values belong to the molecule of their own block, whether it stands above or below them.

By UniProt entry, the sequences of proteins in these tests, tags left out.
UniProt Q01844: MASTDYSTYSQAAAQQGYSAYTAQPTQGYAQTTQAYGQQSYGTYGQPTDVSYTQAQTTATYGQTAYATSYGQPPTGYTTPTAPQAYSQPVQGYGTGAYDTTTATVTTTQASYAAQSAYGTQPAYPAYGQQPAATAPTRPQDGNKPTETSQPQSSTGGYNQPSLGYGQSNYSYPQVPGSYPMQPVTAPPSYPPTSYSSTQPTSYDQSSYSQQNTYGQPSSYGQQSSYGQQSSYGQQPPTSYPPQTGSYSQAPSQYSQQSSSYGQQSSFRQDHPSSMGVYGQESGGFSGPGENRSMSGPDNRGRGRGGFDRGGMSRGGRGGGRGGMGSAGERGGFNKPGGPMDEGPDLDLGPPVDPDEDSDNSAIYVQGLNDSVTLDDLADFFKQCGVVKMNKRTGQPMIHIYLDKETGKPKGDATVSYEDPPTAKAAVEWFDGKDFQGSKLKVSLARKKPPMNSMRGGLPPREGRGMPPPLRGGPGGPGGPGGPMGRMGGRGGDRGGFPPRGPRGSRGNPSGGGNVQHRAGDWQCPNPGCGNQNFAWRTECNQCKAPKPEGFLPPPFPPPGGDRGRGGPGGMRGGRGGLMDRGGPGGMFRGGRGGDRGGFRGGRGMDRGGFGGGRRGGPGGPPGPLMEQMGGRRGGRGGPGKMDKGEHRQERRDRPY
UniProt P35637: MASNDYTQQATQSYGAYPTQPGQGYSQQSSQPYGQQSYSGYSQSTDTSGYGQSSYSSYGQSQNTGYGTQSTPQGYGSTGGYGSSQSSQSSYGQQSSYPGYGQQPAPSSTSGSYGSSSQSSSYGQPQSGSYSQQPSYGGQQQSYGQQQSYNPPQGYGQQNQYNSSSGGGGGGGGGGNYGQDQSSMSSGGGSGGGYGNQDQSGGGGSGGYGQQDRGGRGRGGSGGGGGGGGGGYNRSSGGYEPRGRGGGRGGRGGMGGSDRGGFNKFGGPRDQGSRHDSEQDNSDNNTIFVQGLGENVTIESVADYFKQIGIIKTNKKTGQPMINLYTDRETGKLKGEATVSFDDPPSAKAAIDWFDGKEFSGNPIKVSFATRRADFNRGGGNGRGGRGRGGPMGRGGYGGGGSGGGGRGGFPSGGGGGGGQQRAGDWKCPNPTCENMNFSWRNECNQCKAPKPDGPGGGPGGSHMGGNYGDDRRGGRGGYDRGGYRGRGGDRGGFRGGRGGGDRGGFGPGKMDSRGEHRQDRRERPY
UniProt Q92804: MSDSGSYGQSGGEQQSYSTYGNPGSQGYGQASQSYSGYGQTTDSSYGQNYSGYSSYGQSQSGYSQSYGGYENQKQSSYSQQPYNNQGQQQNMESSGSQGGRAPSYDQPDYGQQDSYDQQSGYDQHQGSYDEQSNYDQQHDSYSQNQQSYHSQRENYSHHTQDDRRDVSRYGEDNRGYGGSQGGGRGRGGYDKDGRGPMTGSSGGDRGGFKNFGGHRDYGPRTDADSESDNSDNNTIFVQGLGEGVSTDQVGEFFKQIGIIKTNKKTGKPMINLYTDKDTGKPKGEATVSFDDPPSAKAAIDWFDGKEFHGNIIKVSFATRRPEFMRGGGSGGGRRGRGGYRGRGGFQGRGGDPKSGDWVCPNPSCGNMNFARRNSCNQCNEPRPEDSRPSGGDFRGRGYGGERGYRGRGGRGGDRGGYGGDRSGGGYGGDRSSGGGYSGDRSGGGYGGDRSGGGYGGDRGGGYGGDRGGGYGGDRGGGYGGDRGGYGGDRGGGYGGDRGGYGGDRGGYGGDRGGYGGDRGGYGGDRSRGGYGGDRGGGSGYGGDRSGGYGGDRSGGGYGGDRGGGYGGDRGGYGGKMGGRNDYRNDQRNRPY
UniProt P27708: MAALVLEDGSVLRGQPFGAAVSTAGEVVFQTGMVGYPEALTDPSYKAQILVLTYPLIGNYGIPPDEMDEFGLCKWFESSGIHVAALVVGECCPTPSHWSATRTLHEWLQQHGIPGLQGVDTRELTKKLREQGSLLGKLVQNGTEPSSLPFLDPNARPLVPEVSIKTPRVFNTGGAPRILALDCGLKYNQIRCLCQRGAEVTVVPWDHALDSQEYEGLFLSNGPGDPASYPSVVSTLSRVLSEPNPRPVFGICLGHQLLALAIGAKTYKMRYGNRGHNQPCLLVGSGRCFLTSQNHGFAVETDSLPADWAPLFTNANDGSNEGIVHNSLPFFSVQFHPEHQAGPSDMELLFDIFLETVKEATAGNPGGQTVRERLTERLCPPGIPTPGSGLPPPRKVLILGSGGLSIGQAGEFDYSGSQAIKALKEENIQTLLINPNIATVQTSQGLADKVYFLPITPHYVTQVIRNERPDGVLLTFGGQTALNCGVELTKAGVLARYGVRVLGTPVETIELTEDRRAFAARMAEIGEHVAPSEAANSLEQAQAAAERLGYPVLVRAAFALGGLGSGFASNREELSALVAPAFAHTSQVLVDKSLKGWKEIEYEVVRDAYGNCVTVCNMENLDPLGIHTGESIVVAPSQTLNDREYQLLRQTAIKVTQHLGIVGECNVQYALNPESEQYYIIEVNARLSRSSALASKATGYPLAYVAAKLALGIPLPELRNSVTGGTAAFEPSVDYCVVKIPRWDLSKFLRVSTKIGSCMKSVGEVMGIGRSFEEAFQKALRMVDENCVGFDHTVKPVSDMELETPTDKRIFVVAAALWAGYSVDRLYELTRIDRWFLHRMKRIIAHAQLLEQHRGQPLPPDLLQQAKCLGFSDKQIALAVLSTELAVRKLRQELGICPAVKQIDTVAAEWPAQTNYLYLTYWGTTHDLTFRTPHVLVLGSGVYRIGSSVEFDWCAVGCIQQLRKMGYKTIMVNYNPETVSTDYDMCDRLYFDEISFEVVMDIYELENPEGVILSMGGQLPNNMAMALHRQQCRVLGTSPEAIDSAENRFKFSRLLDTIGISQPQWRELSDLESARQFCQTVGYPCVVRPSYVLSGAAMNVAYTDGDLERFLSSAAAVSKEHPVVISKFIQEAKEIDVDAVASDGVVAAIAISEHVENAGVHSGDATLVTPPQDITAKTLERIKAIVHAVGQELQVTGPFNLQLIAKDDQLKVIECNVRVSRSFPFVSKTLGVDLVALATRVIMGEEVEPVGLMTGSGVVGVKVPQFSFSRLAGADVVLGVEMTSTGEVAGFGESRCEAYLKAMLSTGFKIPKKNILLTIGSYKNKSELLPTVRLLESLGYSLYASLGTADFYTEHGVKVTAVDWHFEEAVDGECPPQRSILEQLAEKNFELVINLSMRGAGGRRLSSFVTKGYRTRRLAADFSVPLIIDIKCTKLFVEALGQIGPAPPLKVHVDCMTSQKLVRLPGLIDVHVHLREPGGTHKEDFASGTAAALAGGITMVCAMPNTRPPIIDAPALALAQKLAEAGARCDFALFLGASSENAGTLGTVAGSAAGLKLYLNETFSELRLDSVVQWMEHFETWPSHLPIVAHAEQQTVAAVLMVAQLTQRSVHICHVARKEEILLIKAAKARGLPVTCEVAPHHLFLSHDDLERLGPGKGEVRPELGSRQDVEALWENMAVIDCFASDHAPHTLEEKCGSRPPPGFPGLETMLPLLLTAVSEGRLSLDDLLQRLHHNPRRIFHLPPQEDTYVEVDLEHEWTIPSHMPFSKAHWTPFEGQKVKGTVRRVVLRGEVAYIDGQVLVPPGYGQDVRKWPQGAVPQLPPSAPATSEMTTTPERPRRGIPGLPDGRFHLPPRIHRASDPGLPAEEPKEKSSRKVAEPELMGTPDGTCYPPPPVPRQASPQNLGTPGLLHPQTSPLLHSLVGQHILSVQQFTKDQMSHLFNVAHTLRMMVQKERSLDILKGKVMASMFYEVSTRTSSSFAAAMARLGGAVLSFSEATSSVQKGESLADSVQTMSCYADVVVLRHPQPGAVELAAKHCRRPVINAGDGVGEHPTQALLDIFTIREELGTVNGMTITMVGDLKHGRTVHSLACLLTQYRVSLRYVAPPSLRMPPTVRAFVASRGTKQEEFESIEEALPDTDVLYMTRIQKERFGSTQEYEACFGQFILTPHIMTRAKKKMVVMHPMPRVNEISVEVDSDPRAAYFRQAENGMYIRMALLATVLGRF
UniProt P17844: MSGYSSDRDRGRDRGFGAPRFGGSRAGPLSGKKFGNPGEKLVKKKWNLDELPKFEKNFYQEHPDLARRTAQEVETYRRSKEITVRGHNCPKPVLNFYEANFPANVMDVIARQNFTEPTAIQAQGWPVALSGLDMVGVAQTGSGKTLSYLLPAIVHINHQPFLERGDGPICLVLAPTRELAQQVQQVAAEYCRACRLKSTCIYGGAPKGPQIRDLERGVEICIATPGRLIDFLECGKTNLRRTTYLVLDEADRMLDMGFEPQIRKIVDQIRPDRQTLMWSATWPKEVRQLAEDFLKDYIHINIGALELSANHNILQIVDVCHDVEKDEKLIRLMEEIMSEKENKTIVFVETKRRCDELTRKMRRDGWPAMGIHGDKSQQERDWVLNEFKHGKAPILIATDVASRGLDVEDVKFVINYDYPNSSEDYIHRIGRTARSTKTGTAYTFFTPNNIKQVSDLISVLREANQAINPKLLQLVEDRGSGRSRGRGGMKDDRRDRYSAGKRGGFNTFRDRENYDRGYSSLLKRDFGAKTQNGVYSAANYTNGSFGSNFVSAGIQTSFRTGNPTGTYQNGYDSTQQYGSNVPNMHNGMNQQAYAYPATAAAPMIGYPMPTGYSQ
UniProt Q92841: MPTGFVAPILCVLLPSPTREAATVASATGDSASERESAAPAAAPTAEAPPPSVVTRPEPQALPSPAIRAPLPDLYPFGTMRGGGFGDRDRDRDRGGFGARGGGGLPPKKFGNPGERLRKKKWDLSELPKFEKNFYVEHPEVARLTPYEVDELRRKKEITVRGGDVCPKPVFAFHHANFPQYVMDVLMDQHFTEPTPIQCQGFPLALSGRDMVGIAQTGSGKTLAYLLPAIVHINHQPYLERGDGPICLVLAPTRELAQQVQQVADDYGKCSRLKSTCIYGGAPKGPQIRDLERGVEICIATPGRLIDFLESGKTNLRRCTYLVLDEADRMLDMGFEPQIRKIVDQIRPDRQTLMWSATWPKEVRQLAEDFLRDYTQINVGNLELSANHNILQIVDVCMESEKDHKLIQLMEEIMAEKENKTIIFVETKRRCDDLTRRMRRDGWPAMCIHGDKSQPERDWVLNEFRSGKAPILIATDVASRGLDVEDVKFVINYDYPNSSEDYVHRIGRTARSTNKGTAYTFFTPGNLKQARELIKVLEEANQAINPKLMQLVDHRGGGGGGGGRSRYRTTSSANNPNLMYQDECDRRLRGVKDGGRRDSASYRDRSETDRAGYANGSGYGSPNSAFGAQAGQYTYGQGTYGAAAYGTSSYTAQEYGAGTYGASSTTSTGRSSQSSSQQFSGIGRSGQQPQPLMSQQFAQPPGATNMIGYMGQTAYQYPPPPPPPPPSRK
UniProt P11940: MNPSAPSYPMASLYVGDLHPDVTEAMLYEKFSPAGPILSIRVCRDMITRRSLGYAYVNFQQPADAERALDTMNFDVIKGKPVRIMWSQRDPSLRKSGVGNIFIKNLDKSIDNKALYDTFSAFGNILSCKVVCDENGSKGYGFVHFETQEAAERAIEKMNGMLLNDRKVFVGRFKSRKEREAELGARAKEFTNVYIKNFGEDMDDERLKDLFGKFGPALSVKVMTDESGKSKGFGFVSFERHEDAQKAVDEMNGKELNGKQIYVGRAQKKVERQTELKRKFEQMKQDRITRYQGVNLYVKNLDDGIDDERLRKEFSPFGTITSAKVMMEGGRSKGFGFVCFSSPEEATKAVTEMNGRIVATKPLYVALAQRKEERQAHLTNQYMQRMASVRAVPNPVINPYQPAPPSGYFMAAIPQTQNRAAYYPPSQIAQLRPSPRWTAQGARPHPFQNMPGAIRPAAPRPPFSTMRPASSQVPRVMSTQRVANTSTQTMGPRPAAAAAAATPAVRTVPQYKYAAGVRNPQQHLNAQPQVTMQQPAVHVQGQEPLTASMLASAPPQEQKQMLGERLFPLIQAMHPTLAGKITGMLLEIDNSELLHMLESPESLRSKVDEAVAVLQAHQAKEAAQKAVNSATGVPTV
UniProt Q9Y265: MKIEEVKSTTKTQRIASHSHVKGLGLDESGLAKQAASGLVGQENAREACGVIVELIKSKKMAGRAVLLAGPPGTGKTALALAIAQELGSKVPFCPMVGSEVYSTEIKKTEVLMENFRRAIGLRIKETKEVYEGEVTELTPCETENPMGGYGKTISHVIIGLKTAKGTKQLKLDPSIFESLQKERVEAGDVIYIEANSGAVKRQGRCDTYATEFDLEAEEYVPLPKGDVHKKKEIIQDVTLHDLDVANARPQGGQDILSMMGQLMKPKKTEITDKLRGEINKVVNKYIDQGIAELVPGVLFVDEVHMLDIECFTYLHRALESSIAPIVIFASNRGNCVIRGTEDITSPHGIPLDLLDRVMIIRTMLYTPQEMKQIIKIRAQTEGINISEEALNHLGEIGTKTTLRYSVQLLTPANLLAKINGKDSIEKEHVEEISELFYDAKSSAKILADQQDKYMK

What was measured:
[1] = target: T1, MATR3 (human (endogenous in HeLa)) (UniProt P43243); assay: affinity purification with mass spectrometry; IPs of FUS, EWSR1, TAF15 or MATR3 from HeLa nuclear extract, TCA precipitated, shotgun mass spectrometry
T1 sequence: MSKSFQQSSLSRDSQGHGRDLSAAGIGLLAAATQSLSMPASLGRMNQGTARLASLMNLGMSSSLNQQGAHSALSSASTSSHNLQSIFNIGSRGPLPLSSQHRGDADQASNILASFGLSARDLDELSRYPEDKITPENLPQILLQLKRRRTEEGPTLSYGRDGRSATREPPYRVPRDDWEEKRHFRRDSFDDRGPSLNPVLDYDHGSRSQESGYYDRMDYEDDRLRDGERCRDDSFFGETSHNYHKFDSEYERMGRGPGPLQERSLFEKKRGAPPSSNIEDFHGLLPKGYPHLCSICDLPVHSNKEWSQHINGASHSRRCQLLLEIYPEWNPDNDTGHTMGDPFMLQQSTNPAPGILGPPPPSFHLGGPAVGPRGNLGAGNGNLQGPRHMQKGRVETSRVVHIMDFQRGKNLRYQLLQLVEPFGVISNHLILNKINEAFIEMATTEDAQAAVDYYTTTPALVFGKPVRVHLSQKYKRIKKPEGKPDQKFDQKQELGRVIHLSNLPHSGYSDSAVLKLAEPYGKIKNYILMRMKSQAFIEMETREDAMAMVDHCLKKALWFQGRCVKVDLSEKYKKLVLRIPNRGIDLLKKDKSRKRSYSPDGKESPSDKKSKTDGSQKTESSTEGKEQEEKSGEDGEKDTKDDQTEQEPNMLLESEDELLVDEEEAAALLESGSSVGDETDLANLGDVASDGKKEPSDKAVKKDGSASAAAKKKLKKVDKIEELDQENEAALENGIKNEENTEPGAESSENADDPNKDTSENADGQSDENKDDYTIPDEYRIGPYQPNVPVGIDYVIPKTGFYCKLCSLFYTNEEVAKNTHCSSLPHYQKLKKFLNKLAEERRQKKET

[2] = target: EWSR1 (human (endogenous in HeLa)) (UniProt Q01844); assay: as above
[3] = target: FUS (human (endogenous in HeLa)) (UniProt P35637); assay: as above
[4] = target: TAF15 (human (endogenous in HeLa)) (UniProt Q92804); assay: as above
[5] = target: SNRPC subunit of the U1 snRNP (human (endogenous in HeLa)) (UniProt P09234); assay: affinity purification with mass spectrometry; IP of the U1 snRNP machinery from HeLa nuclear extract, TCA precipitated, peptides labelled by tandem mass tag, MS3 on an Orbitrap Fusion
[6] = target: SNRPC subunit of the U1 snRNP (human (endogenous in HeLa)) (UniProt P09234); assay: as above; remark: listed apart in the source

binding [1]: binds
Molecule: CAD (from UniProt P27708 1-2225)

binding [1]: binds
Molecule: DDB1 (from UniProt Q16531 1-1140)

binding [2]: binds
binding [3]: binds
binding [1]: binds
binding [4]: binds
binding [5]: binds
Molecule: DDX5 (from UniProt P17844 1-614)

binding [2]: binds
binding [3]: binds
binding [1]: binds
binding [4]: binds
binding [5]: binds
Molecule: DDX17 (from UniProt Q92841 1-729)

binding [5]: binds
Molecule: EWSR1 (from UniProt Q01844 1-656)

binding [2]: binds
binding [1]: binds
binding [4]: binds
binding [5]: binds
Molecule: FUS (from UniProt P35637 1-526)

binding [1]: binds
Molecule: HNRNPK (from UniProt P61978 1-463)

binding [5]: binds
Molecule: HSPB1 (from UniProt P04792 1-205)

binding [1]: binds
Molecule: NUMA1 (from UniProt Q14980 1-2115)

binding [4]: binds
Molecule: PABPC1 (from UniProt P11940 1-636)

binding [1]: binds
Molecule: RUVBL1 (from UniProt Q9Y265 1-456)

binding [6]: binds
B1: TIA1 (protein, UniProt P31483 1-386)
chain: MEDEMPKTLYVGNLSRDVTEALILQLFSQIGPCKNCKMIMDTAGNDPYCFVEFHEHRHAAAALAAMNGRKIMGKEVKVNWATTPSSQKKDTSSSTVVSTQRSQDHFHVFVGDLSPEITTEDIKAAFAPFGRISDARVVKDMATGKSKGYGFVSFFNKWDAENAIQQMGGQWLGGRQIRTNWATRKPPAPKSTYESNTKQLSYDEVVNQSSPSNCTVYCGGVTSGLTEQLMRQTFSPFGQIMEIRVFPDKGYSFVRFNSHESAAHAIVSVNGTTIEGHVVKCYWGKETLDMINPVQQQNQIGYPQPYGQWGQWYGNAQQIGQYMPNGWQVPAYGMYGQAWNQQGFNQTQSSAPWMGPNYGVQPPQGQNGSMLPNQPSGYRVAGYETQ

binding [2]: binds
binding [3]: binds
binding [1]: binds
binding [4]: binds
B2: HNRNPR (protein, UniProt O43390 1-633)
chain: MANQVNGNAVQLKEEEEPMDTSSVTHTEHYKTLIEAGLPQKVAERLDEIFQTGLVAYVDLDERAIDALREFNEEGALSVLQQFKESDLSHVQNKSAFLCGVMKTYRQREKQGSKVQESTKGPDEAKIKALLERTGYTLDVTTGQRKYGGPPPDSVYSGVQPGIGTEVFVGKIPRDLYEDELVPLFEKAGPIWDLRLMMDPLSGQNRGYAFITFCGKEAAQEAVKLCDSYEIRPGKHLGVCISVANNRLFVGSIPKNKTKENILEEFSKVTEGLVDVILYHQPDDKKKNRGFCFLEYEDHKSAAQARRRLMSGKVKVWGNVVTVEWADPVEEPDPEVMAKVKVLFVRNLATTVTEEILEKSFSEFGKLERVKKLKDYAFVHFEDRGAAVKAMDEMNGKEIEGEEIEIVLAKPPDKKRKERQAARQASRSTAYEDYYYHPPPRMPPPIRGRGRGGGRGGYGYPPDYYGYEDYYDDYYGYDYHDYRGGYEDPYYGYDDGYAVRGRGGGRGGRGAPPPPRGRGAPPPRGRAGYSQRGAPLGPPRGSRGGRGGPAQQQRGRGSRGSRGNRGGNVGGKRKADGYNQPDSKRRQTNNQQNWGSQPIAQQPLQQGGDYSGNYGYNNDNQEFYQDTYGQQWK

binding [6]: binds
B3: HTATSF1 (protein, UniProt O43719 1-755)
chain: MSGTNLDGNDEFDEQLRMQELYGDGKDGDTQTDAGGEPDSLGQQPTDTPYEWDLDKKAWFPKITEDFIATYQANYGFSNDGASSSTANVEDVHARTAEEPPQEKAPEPTDARKKGEKRKAESGWFHVEEDRNTNVYVSGLPPDITVDEFIQLMSKFGIIMRDPQTEEFKVKLYKDNQGNLKGDGLCCYLKRESVELALKLLDEDEIRGYKLHVEVAKFQLKGEYDASKKKKKCKDYKKKLSMQQKQLDWRPERRAGPSRMRHERVVIIKNMFHPMDFEDDPLVLNEIREDLRVECSKFGQIRKLLLFDRHPDGVASVSFRDPEEADYCIQTLDGRWFGGRQITAQAWDGTTDYQVEETSREREERLRGWEAFLNAPEANRGLRRSDSVSASERAGPSRARHFSEHPSTSKMNAQETATGMAFEEPIDEKKFEKTEDGGEFEEGASENNAKESSPEKEAEEGCPEKESEEGCPKRGFEGSCSQKESEEGNPVRGSEEDSPKKESKKKTLKNDCEENGLAKESEDDLNKESEEEVGPTKESEEDDSEKESDEDCSEKQSEDGSEREFEENGLEKDLDEEGSEKELHENVLDKELEENDSENSEFEDDGSEKVLDEEGSEREFDEDSDEKEEEEDTYEKVFDDESDEKEDEEYADEKGLEAADKKAEEGDADEKLFEESDDKEDEDADGKEVEDADEKLFEDDDSNEKLFDEEEDSSEKLFDDSDERGTLGGFGSVEEGPLSTGSSFILSSDDDDDDI

binding [6]: binds
B4: CPSF1 (protein, UniProt Q10570 1-1443)
chain: MYAVYKQAHPPTGLEFSMYCNFFNNSERNLVVAGTSQLYVYRLNRDAEALTKNDRSTEGKAHREKLELAASFSFFGNVMSMASVQLAGAKRDALLLSFKDAKLSVVEYDPGTHDLKTLSLHYFEEPELRDGFVQNVHTPRVRVDPDGRCAAMLVYGTRLVVLPFRRESLAEEHEGLVGEGQRSSFLPSYIIDVRALDEKLLNIIDLQFLHGYYEPTLLILFEPNQTWPGRVAVRQDTCSIVAISLNITQKVHPVIWSLTSLPFDCTQALAVPKPIGGVVVFAVNSLLYLNQSVPPYGVALNSLTTGTTAFPLRTQEGVRITLDCAQATFISYDKMVISLKGGEIYVLTLITDGMRSVRAFHFDKAAASVLTTSMVTMEPGYLFLGSRLGNSLLLKYTEKLQEPPASAVREAADKEEPPSKKKRVDATAGWSAAGKSVPQDEVDEIEVYGSEAQSGTQLATYSFEVCDSILNIGPCANAAVGEPAFLSEEFQNSPEPDLEIVVCSGHGKNGALSVLQKSIRPQVVTTFELPGCYDMWTVIAPVRKEEEDNPKGEGTEQEPSTTPEADDDGRRHGFLILSREDSTMILQTGQEIMELDTSGFATQGPTVFAGNIGDNRYIVQVSPLGIRLLEGVNQLHFIPVDLGAPIVQCAVADPYVVIMSAEGHVTMFLLKSDSYGGRHHRLALHKPPLHHQSKVITLCLYRDLSGMFTTESRLGGARDELGGRSGPEAEGLGSETSPTVDDEEEMLYGDSGSLFSPSKEEARRSSQPPADRDPAPFRAEPTHWCLLVRENGTMEIYQLPDWRLVFLVKNFPVGQRVLVDSSFGQPTTQGEARREEATRQGELPLVKEVLLVALGSRQSRPYLLVHVDQELLIYEAFPHDSQLGQGNLKVRFKKVPHNINFREKKPKPSKKKAEGGGAEEGAGARGRVARFRYFEDIYGYSGVFICGPSPHWLLVTGRGALRLHPMAIDGPVDSFAPFHNVNCPRGFLYFNRQGELRISVLPAYLSYDAPWPVRKIPLRCTAHYVAYHVESKVYAVATSTNTPCARIPRMTGEEKEFETIERDERYIHPQQEAFSIQLISPVSWEAIPNARIELQEWEHVTCMKTVSLRSEETVSGLKGYVAAGTCLMQGEEVTCRGRILIMDVIEVVPEPGQPLTKNKFKVLYEKEQKGPVTALCHCNGHLVSAIGQKIFLWSLRASELTGMAFIDTQLYIHQMISVKNFILAADVMKSISLLRYQEESKTLSLVSRDAKPLEVYSVDFMVDNAQLGFLVSDRDRNLMVYMYLPEAKESFGGMRLLRRADFHVGAHVNTFWRTPCRGATEGLSKKSVVWENKHITWFATLDGGIGLLLPMQEKTYRRLLMLQNALTTMLPHHAGLNPRAFRMLHVDRRTLQNAVRNVLDGELLNRYLYLSTMERSELAKKIGTTPDIILDDLLETDRVTAHF

binding [6]: binds
B5: CPSF3 (protein, UniProt Q9UKF6 1-684)
chain: MSAIPAEESDQLLIRPLGAGQEVGRSCIILEFKGRKIMLDCGIHPGLEGMDALPYIDLIDPAEIDLLLISHFHLDHCGALPWFLQKTSFKGRTFMTHATKAIYRWLLSDYVKVSNISADDMLYTETDLEESMDKIETINFHEVKEVAGIKFWCYHAGHVLGAAMFMIEIAGVKLLYTGDFSRQEDRHLMAAEIPNIKPDILIIESTYGTHIHEKREEREARFCNTVHDIVNRGGRGLIPVFALGRAQELLLILDEYWQNHPELHDIPIYYASSLAKKCMAVYQTYVNAMNDKIRKQININNPFVFKHISNLKSMDHFDDIGPSVVMASPGMMQSGLSRELFESWCTDKRNGVIIAGYCVEGTLAKHIMSEPEEITTMSGQKLPLKMSVDYISFSAHTDYQQTSEFIRALKPPHVILVHGEQNEMARLKAALIREYEDNDEVHIEVHNPRNTEAVTLNFRGEKLAKVMGFLADKKPEQGQRVSGILVKRNFNYHILSPCDLSNYTDLAMSTVKQTQAIPYTGPFNLLCYQLQKLTGDVEELEIQEKPALKVFKNITVIQEPGMVVLEWLANPSNDMYADTVTTVILEVQSNPKIRKGAVQKVSKKLEMHVYSKRLEIMLQDIFGEDCVSVKDDSILSVTVDGKTANLNLETRTVECEEGSEDDESLREMVELAAQRLYEALTPVH
